Test results: article PMC7378220
No constants are given. Whether binding was seen depends on the method and setting. Some entries that bind do so weakly or less than the wild type. Where a sequence is shown, tags or fusion partners need not be part of it.

Molecular target: T1, His6-MBP-LEM (LEM-domain of human emerin) (human) (UniProt P50402)
T1 sequence: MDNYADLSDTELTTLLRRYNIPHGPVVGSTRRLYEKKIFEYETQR
Experiment: ELISA; ELISA-type HTS assay: MBP-LEM (10 pmol) coated on a high bind plate, BAF (5 pmol) in PBST added with or without compound, then ATTO 425-labelled 270 bp DNA; read-out is the fluorescence of the DNA retained through BAF on the LEM-coated surface; RT; without or with 2 mM GSH; both purified

- binding: binds
B1: barrier-to-autointegration factor (BAF), wild type, dephosphorylated and tag-less (protein, UniProt O75531 1-89)
chain: MTTSQKHRDFVAEPMGEKPVGSLAGIGEVLGKKLEERGFDKAYVVLGQFLVLKKDEDLFREWLKDTCGANAKQSRDCFGCLREWCDAFL
